For at least one compound, name, drawing or mass did not settle the structure.
System: human adipocytes
Test: qRT-PCR in human adipocytes (hADSC) treated two days with naringenin and inhibitors
Assay type: cell-based
Settings: 2d treatment
Method: Human white adipocytes were treated for 2d with naringenin in the presence of inhibitors of metabolic pathways to determine the mechanism of action for stimulating fat oxidation and thermogenic energy expenditure.
Naringenin increased UCP1 and CPT1β mRNA induction compared to control (p<0.001). PPARα and PPARγ inhibition reduced UCP1 and CPT1β mRNA expression (p<0.001). Each experiment was conducted with three biological replicates and four technical replicates.
The whole orange extract was dissolved in DMSO at 15 mM (based on 28% naringenin content) and added to cells at a dilution of 1:500 to achieve a final concentration of 30 μM. The inhibitors added to the naringenin-treated cells included: peroxisome proliferator-activated receptor alpha (PPARα) antagonist GW6471 and peroxisome proliferator-activated receptor gamma (PPARγ) antagonist GW9662 (Cayman Chemical, Ann Arbor, Mich.) at 10 μM concentration, protein kinase A (PKA) inhibitor H89 (Millipore Sigma, Burlington, Mass.) at 20 μM concentration, and protein kinase G (PKG) inhibitor […] (Biolog Life Science Institute, AXXORA, LLC, Farmingdale, N.Y.) at 50 μM concentration. […] The expression of UCP1, CPT1β, and GLUT4 was quantified with one-step reverse transcriptase PCR using the reverse PCR primer to prime cDNA synthesis as previously described.^6

## O=c1cc(N2CCOCC2)oc2c(-c3ccccc3)cccc12 [LY294002, reference compound]
  Induction of UCP1 and CPT-1b by naringenin in the presence of the inhibitor: abolished
